Data as given in PubChem BioAssay AID1224828 (NIAID, 2016)
Aim: 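Regulators linking TLR4 signalling to p65 nuclear translocation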 (primary screen). System: mouse RAW264.7 G9 macrophage reporter cells (GFP-p65, Tnf promoter-mCherry). Knock-down reagent: siRNA pool against mouse genes, 100 nM. Timing: 2 days siRNA transfection, then 40 min LPS before fixation. Challenge: LPS (Salmonella minnesota R595) at 10 ng/ml. Measured: 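Microscopy ratio of nuclear to perinuclear-ring GFP-p65 signal, scaled to the plate median; gene score is the average of two replicate robust z-scores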. Reading the numbers: p65 translocation robust z-score: higher = more nuclear NF-kappaB p65 after LPS than the plate median; nuclear/cytoplasmic p65 ratio: higher = more nuclear NF-kappaB p65. Active means: 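Active if robust z is above 3.3 (negative regulators) or below -1.56, the Tlr4 control median (positive regulators); activity score 50 or more; control wells not called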. Meaning of the calls: active = hit (p65 shift raised or lowered); inactive = no clear change.
The whole screen tested about 17,000 reagents; shown is an unselected part. Over the whole deposit, 762 (4.5%) are marked active. 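Active calls include both raised and lowered p65 entry, mostly lowered; wells with fewer than 50 cells lack a z-score.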 Raw values vary from plate to plate and are shown uncorrected.

| Target gene | p65 translocation robust z-score | nuclear/cytoplasmic p65 ratio, rep 1 | nuclear/cytoplasmic p65 ratio, rep 2 | low cell count flag | outcome |
| --- | --- | --- | --- | --- | --- |
| Mlf2 | -0.38 | 1.34 | 1.34 | enough cells to score | inactive |
| Ikbkg | -0.92 | 1.32 | 1.25 | enough cells to score | inactive |
| Ccdc184 | 0.47 | 1.72 | 1.72 | enough cells to score | inactive |
| Coq3 | 0.94 | 1.81 | 1.83 | enough cells to score | inactive |
| Myl6 | 0.87 | 1.48 | 1.53 | enough cells to score | inactive |
| Hhatl | -0.16 | 1.5 | 1.44 | enough cells to score | inactive |
| Klhl36 | -0.25 | 1.53 | 1.81 | enough cells to score | inactive |
| Utp15 | 0.34 | 1.54 | 1.67 | enough cells to score | inactive |
| Mllt6 | -0.65 | 1.28 | 1.33 | enough cells to score | inactive |
| B3galt1 | -0.37 | 1.67 | 1.34 | enough cells to score | inactive |
| Ncs1 | 0.23 | 1.61 | 1.51 | enough cells to score | inactive |
| Scn3b | -0.81 | 1.28 | 1.15 | enough cells to score | inactive |
| Acer3 | -1.08 | 1.37 | 1.12 | enough cells to score | inactive |
| Rdh16 | 0.52 | 1.53 | 1.24 | enough cells to score | inactive |
| U2af1l4 | – | 1.27 | 0 | fewer than 50 cells per well; well left out of scoring | inactive |
| Hsp90aa1 | 0.46 | 1.32 | 1.45 | enough cells to score | inactive |
| Nfkbid | -1.72 | 1.28 | 1.34 | enough cells to score | active |
| Or13p5 | 0.72 | 1.78 | 1.47 | enough cells to score | inactive |
| Ap1m2 | -1.58 | 1.28 | 1.53 | enough cells to score | active |
| Tmprss11e | 0.11 | 1.76 | 1.5 | enough cells to score | inactive |
| Dgkz | – | 1.71 | 1.35 | fewer than 50 cells per well; well left out of scoring | inactive |
| Cdc50b | -0.1 | 1.4 | 1.54 | enough cells to score | inactive |
| Foxj2 | -0.23 | 1.39 | 1.35 | enough cells to score | inactive |
| Mro | 0.53 | 2 | 1.56 | enough cells to score | inactive |
| Cd72 | -0.44 | 1.44 | 1.32 | enough cells to score | inactive |
| Semp2l2a | -2.32 | 1.1 | 1.34 | enough cells to score | active |
| Slc35f5 | – | 0.953 | 1.17 | fewer than 50 cells per well; well left out of scoring | inactive |
| Plxna2 | 1.82 | 1.57 | 1.42 | enough cells to score | inactive |
| Fbl | – | 1.49 | 1.85 | fewer than 50 cells per well; well left out of scoring | inactive |
| Acadl | 0.72 | 1.73 | 1.71 | enough cells to score | inactive |
| Rasa4 | -0.66 | 1.44 | 1.41 | enough cells to score | inactive |
| Klri2 | -0.82 | 1.31 | 1.38 | enough cells to score | inactive |
| Lilrb4b | 1.03 | 1.51 | 1.57 | enough cells to score | inactive |
| Pkhd1l1 | -0.05 | 1.38 | 1.2 | enough cells to score | inactive |
| Pcdh7 | -0.95 | 1.36 | 1.25 | enough cells to score | inactive |
| Fam124b | – | 1.32 | 1.43 | fewer than 50 cells per well; well left out of scoring | inactive |
| Yrdc | 0.66 | 1.63 | 2 | enough cells to score | inactive |
| Ifnb1 | -1.4 | 1.16 | 1.29 | enough cells to score | inactive |
| Tnfaip2 | 0.02 | 1.63 | 1.41 | enough cells to score | inactive |
| Apaf1 | 0.28 | 1.69 | 1.63 | enough cells to score | inactive |
| Poll | 0.73 | 1.53 | 1.57 | enough cells to score | inactive |
| Pde7b | -0.5 | 1.39 | 1.34 | enough cells to score | inactive |
| Ncbp3 | -0.22 | 1.36 | 1.4 | enough cells to score | inactive |
| Sprr1b | -1.22 | 1.26 | 1.13 | enough cells to score | inactive |
| Coq9 | – | 1.26 | 1.21 | fewer than 50 cells per well; well left out of scoring | inactive |
| Sqle | -0.8 | 1.45 | 1.42 | enough cells to score | inactive |
| Gcnt2 | 0.04 | 1.4 | 1.42 | enough cells to score | inactive |
| Abhd14a | 1.42 | 1.15 | 1.54 | enough cells to score | inactive |
| Dis3 | 0.84 | 1.56 | 1.52 | enough cells to score | inactive |

The list goes on, starting with the last 6 of the part before.
| Target gene | p65 translocation robust z-score | nuclear/cytoplasmic p65 ratio, rep 1 | nuclear/cytoplasmic p65 ratio, rep 2 | low cell count flag | outcome |
| --- | --- | --- | --- | --- | --- |
| Sprr1b | -1.22 | 1.26 | 1.13 | enough cells to score | inactive |
| Coq9 | – | 1.26 | 1.21 | fewer than 50 cells per well; well left out of scoring | inactive |
| Sqle | -0.8 | 1.45 | 1.42 | enough cells to score | inactive |
| Gcnt2 | 0.04 | 1.4 | 1.42 | enough cells to score | inactive |
| Abhd14a | 1.42 | 1.15 | 1.54 | enough cells to score | inactive |
| Dis3 | 0.84 | 1.56 | 1.52 | enough cells to score | inactive |
| Nusap1 | 0.42 | 1.41 | 1.55 | enough cells to score | inactive |
| Apof | -0.29 | 1.57 | 1.58 | enough cells to score | inactive |
| Serpina3k | – | 1.47 | 1.29 | fewer than 50 cells per well; well left out of scoring | inactive |
| Fam107a | – | 1.18 | 1.24 | fewer than 50 cells per well; well left out of scoring | inactive |
| Ralbp1 | -0.2 | 1.63 | 1.35 | enough cells to score | inactive |
| Gjd4 | 0.47 | 1.56 | 1.54 | enough cells to score | inactive |
| Pdpk1 | 0.83 | 1.76 | 1.53 | enough cells to score | inactive |
| Glmn | -0.37 | 1.46 | 1.49 | enough cells to score | inactive |
| Tpsab1 | 0.49 | 1.89 | 1.53 | enough cells to score | inactive |
| Steap3 | -0.01 | 1.6 | 1.62 | enough cells to score | inactive |
| Mospd3 | 0.4 | 1.86 | 1.65 | enough cells to score | inactive |
| Cox6a2 | -0.79 | 1.52 | 1.59 | enough cells to score | inactive |
| 9130221H12Rik | -1.62 | 1.26 | 1.26 | enough cells to score | active |
| Fam216b | 1.19 | 1.7 | 1.76 | enough cells to score | inactive |
| Tmem35a | 0.32 | 1.46 | 1.61 | enough cells to score | inactive |
| Igfbp6 | -0.43 | 1.33 | 1.37 | enough cells to score | inactive |
| Stkld1 | 0.21 | 1.72 | 1.42 | enough cells to score | inactive |
| Dpep3 | -1.55 | 1.28 | 1.17 | enough cells to score | inactive |
| Tbxa2r | -1.19 | 1.41 | 1.34 | enough cells to score | inactive |
| Hax1 | – | 1.26 | 1.23 | fewer than 50 cells per well; well left out of scoring | inactive |
| Ttc39b | – | 1.69 | 1.46 | fewer than 50 cells per well; well left out of scoring | inactive |
| Slc35c1 | -1.21 | 1.3 | 1.2 | enough cells to score | inactive |
| Ncstn | 0.07 | 1.96 | 1.46 | enough cells to score | inactive |
| Rab11fip4 | -0.15 | 1.42 | 1.51 | enough cells to score | inactive |
| Tcfl5 | -0.51 | 1.46 | 1.43 | enough cells to score | inactive |
| Adh1 | -0.39 | 1.52 | 1.6 | enough cells to score | inactive |
